37 targets from the supplement of paper PMC11732987, “Enantioselective OTUD7B fragment discovery through chemoproteomics screening and high-throughput optimisation” (Communications Chemistry, 2025) can be followed below.

Sequences of proteins named here, by UniProt entry; tags and fusion partners are left off. A change or cut given only in a name is not applied to a line headed by its entry. Residues count along the entry.
UniProt Q5TFE4: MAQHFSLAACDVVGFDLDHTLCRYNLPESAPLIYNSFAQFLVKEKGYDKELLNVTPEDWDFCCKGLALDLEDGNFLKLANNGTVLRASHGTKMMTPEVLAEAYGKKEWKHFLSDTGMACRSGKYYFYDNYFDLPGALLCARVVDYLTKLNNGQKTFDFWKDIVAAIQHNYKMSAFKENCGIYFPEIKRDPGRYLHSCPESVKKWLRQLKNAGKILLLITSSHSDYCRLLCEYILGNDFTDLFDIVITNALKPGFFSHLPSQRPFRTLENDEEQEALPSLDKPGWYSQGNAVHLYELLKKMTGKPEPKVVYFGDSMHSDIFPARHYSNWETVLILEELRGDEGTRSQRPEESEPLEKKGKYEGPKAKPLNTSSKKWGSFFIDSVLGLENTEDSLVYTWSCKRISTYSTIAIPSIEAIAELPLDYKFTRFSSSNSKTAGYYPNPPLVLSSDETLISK
UniProt Q5SRE5, 1251-1272: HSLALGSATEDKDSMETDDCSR
UniProt Q9H649: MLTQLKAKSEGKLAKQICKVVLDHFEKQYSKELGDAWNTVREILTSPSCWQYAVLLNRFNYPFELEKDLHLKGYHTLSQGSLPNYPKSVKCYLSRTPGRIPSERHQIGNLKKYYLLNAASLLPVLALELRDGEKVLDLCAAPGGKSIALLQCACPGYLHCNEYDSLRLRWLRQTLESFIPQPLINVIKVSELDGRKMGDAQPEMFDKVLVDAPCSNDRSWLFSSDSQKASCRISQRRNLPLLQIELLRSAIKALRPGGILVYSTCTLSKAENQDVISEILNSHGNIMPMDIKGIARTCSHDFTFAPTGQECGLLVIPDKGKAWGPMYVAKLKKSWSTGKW
UniProt Q96AB6: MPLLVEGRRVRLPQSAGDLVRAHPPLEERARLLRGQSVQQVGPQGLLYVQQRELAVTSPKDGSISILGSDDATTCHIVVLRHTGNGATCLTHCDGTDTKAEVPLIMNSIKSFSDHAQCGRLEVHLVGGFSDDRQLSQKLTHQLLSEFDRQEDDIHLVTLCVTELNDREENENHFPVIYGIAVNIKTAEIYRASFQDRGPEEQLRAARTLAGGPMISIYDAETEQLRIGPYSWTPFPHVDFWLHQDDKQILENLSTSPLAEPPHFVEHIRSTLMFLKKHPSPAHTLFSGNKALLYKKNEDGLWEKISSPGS
UniProt Q9BW91: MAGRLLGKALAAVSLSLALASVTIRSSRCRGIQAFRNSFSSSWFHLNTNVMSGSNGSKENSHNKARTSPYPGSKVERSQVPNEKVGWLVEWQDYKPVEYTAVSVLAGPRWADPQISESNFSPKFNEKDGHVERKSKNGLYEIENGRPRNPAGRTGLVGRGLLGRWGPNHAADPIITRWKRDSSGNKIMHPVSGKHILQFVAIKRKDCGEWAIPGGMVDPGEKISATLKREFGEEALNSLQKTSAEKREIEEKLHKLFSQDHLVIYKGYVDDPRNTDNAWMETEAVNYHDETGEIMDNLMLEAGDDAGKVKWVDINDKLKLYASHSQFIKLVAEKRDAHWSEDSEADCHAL
UniProt Q9H7Z3: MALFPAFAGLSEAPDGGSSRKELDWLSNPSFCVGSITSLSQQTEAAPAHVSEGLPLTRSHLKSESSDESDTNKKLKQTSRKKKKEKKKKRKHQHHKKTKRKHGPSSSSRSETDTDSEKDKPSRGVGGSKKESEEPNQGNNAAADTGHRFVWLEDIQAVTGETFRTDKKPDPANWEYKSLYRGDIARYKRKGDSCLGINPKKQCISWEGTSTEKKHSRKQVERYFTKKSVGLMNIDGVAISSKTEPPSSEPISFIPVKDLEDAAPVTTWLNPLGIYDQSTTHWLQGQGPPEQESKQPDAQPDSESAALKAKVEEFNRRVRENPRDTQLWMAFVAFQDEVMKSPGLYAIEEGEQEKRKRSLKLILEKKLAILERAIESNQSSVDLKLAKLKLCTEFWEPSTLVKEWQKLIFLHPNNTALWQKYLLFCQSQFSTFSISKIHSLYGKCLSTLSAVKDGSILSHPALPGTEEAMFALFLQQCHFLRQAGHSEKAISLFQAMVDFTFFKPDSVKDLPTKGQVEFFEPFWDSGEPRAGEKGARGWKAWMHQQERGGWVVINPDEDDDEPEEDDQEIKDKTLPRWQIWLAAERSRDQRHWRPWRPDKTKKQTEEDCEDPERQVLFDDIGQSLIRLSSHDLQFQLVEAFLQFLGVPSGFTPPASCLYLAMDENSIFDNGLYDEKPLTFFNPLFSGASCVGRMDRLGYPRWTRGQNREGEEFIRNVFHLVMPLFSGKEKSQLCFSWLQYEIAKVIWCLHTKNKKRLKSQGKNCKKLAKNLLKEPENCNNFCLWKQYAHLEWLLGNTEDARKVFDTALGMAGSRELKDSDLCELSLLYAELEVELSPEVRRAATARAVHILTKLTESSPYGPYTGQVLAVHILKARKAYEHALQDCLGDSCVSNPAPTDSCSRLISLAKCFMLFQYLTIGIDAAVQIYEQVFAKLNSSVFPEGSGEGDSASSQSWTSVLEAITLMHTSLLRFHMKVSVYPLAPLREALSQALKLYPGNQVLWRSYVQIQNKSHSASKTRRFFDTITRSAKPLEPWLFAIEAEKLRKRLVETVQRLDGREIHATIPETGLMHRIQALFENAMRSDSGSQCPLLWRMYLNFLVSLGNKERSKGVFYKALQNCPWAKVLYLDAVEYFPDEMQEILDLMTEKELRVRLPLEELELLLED
UniProt P49757: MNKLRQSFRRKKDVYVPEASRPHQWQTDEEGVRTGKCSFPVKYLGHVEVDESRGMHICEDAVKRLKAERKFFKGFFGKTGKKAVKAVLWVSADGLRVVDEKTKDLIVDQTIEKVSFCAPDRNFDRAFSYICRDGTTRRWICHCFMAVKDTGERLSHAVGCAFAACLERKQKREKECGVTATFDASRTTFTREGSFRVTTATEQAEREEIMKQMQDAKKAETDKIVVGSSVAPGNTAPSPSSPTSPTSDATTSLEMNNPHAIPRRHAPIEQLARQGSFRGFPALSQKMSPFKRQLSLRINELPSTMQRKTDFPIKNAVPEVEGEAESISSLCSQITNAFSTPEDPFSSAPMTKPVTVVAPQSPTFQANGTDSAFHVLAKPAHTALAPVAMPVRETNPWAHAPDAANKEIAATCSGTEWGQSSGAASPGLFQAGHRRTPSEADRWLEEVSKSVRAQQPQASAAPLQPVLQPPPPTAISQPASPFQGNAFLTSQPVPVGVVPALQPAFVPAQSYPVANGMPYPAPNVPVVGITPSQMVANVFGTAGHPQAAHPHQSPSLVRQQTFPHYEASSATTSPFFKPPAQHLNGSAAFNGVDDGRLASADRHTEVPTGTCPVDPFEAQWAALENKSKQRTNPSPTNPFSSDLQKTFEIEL
UniProt Q6ZVK8, 2-37: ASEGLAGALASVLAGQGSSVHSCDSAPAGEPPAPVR
UniProt P53384: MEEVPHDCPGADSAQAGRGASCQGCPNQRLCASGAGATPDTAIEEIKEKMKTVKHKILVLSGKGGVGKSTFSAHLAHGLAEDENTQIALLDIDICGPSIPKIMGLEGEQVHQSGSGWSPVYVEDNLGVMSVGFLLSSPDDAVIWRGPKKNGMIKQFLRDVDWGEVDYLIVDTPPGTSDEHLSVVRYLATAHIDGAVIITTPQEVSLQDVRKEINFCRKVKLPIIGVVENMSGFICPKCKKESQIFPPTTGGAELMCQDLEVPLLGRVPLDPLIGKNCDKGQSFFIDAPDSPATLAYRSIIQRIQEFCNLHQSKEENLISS
UniProt Q9BW27: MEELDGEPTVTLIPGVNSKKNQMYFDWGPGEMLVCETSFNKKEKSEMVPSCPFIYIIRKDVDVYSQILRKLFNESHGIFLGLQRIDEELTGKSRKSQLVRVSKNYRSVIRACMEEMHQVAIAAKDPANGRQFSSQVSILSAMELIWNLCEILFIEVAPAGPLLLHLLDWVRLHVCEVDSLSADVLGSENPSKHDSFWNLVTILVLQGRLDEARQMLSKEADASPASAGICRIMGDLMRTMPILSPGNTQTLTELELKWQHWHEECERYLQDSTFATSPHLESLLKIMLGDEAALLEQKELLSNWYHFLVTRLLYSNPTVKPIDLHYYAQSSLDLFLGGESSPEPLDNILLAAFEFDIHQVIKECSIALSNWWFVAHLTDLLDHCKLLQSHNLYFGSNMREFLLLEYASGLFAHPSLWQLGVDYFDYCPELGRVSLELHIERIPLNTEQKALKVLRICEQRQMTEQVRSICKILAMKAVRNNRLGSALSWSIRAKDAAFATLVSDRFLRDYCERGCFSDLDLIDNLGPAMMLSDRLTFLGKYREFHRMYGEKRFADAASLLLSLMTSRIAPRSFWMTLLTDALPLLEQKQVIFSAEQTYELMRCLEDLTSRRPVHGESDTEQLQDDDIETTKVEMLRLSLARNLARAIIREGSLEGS
UniProt Q96DC9: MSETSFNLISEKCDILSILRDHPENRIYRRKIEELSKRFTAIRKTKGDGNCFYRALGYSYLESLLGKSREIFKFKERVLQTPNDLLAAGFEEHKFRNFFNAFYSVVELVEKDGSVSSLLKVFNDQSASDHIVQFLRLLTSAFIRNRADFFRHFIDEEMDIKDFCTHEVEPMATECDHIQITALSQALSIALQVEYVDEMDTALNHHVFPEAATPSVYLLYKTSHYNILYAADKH
UniProt O15381: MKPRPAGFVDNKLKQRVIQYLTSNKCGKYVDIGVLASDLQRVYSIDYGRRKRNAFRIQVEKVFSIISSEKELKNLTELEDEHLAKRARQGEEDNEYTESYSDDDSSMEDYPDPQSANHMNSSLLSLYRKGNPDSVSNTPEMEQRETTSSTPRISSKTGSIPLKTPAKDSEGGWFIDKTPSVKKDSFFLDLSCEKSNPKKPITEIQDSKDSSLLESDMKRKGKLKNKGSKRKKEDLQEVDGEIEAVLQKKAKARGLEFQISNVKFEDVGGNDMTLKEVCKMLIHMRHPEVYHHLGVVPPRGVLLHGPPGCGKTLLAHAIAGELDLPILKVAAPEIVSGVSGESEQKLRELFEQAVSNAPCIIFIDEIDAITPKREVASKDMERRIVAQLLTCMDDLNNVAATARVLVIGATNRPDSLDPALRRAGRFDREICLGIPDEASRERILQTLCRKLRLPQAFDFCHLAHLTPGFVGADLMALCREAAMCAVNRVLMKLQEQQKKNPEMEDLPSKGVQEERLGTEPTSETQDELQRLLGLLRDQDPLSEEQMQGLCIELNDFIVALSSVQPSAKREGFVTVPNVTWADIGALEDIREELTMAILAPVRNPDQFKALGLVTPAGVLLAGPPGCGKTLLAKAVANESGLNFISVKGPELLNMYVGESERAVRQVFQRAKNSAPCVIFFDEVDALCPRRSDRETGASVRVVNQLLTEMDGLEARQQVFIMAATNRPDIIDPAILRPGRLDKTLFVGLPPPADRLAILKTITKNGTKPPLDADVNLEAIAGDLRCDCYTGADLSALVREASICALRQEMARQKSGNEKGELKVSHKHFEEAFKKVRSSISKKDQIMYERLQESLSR
UniProt Q96MF7: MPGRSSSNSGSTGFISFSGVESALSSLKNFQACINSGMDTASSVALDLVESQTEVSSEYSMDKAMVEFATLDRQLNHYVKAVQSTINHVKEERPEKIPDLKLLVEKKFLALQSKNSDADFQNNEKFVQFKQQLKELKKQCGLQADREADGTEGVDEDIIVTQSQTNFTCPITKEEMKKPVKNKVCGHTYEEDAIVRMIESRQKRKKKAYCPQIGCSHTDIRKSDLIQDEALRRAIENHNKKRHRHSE
UniProt Q9BXW6: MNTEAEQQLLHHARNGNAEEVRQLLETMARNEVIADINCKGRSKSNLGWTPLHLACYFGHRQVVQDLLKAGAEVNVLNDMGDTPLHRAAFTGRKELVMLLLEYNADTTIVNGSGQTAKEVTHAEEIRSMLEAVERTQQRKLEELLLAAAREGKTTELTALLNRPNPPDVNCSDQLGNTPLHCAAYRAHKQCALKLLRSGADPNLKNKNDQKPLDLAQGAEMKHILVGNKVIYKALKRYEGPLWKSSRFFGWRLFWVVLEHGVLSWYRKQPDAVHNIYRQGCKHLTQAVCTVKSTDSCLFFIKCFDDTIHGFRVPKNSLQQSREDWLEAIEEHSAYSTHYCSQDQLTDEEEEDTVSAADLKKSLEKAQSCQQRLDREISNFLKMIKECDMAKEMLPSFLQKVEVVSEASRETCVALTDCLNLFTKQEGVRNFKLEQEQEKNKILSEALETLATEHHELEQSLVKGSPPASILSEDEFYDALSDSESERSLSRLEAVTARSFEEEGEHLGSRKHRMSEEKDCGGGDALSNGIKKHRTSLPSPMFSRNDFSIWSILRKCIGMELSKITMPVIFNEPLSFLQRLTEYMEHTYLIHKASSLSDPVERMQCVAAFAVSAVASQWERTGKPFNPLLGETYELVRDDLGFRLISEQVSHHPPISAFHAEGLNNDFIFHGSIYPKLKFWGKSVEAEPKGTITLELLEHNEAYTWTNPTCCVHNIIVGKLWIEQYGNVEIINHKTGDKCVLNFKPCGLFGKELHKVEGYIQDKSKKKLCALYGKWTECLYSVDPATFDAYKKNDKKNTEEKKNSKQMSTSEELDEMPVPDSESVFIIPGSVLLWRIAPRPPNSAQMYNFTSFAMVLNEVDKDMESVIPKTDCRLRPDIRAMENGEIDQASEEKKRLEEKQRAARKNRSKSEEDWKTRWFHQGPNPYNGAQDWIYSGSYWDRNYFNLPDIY

The list shows a part of the results. The data scatter; read single values as rough.

Compound in one experiment: ClCC(=O)N[C@H]1CCCc2ccccc12
Kind of experiment: log2 mean competition ratio of IA-DTB cysteine labelling (DMSO/compound) (log2 ratio); higher = stronger cysteine engagement by compound. As to conditions: 50 µM; treatment time: 4 h; cell line lysate: HEK293T. As to the method:
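IA-DTB competitive cysteine chemoproteomics in HEK293T RIPA lysate. Lysates were treated with compound 29 or 30 at 50 or 200 µM for 4 h, then IA-DTB (500 µM, 1 h), trypsin-digested, NeutrAvidin-enriched and analysed by diaPASEF. Competition ratio = intensity DMSO / intensity compound (n=4 treated, n=64 DMSO); binding: mean log2 CR ≥ 1 and p ≤ 0.05 plus QC filters. Target is the cysteine site.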
Consider NT5DC1 C119 (UniProt Q5TFE4), for which the “log2 mean competition ratio” value is 0.359.

As to NUP188 C1270 (UniProt Q5SRE5), the “log2 mean competition ratio” value was 0.0536.

For NSUN6 C415 (UniProt Q8TEA1), the “log2 mean competition ratio” value was determined as 0.28.

Consider NSUN3 C214 (UniProt Q9H649), for which the “log2 mean competition ratio” value was 0.129.

For the target NUDCD1 C111 (UniProt Q96RS6), the “log2 mean competition ratio” value is -0.359.

In the case of NUP160 C1166 (UniProt Q12769), the “log2 mean competition ratio” value was -0.0252.

Take NR3C2 C308: the “log2 mean competition ratio” value was -0.0869.

As to NPEPPS C265 (UniProt P55786), the “log2 mean competition ratio” value is -0.0186.

In the case of NTAN1 C118 (UniProt Q96AB6), the “log2 mean competition ratio” value is -0.0624.

Regarding NR3C2 C279, the “log2 mean competition ratio” value was determined as 0.0391.

As to NR3C1 C457 (UniProt P04150), the “log2 mean competition ratio” value came out at 0.0741.

As for NSDHL C86, the “log2 mean competition ratio” value was -0.204.

In the case of NUDT3 C68 (UniProt O95989), the “log2 mean competition ratio” value came out at 0.0844.

As for NPTX1 C89 (UniProt Q15818), the “log2 mean competition ratio” value was -0.138.

As to OSBPL3 C337 (UniProt Q9H4L5), the “log2 mean competition ratio” value is -0.0826.

Take NUDT9 C347 (UniProt Q9BW91): the “log2 mean competition ratio” value was -0.342.

Turning to NUP153 C593 (UniProt P49790), the “log2 mean competition ratio” value was -0.267.

Take NRDE2 C1088 (UniProt Q9H7Z3): the “log2 mean competition ratio” value turned out to be 0.234.

In the case of NUMB C58 (UniProt P49757), the “log2 mean competition ratio” value is -0.0916.

Turning to NUDT18 C24 (UniProt Q6ZVK8), the “log2 mean competition ratio” value is -0.291.

Take NPLOC4 C188: the “log2 mean competition ratio” value was -0.19.

On to NT5DC1 C197 (UniProt Q5TFE4), for which the “log2 mean competition ratio” value was -0.123.

As to ORC1 C506 (UniProt Q13415), the “log2 mean competition ratio” value was determined as 0.238.

Regarding NUBP1 C307 (UniProt P53384), the “log2 mean competition ratio” value was -0.112.

NUP85 C603 (UniProt Q9BW27): the “log2 mean competition ratio” value was -0.362.

Turning to OTUB2 C13 (UniProt Q96DC9), the “log2 mean competition ratio” value turned out to be 0.189.

In the case of NVL C309 (UniProt O15381), the “log2 mean competition ratio” value is 0.0994.

On to NSUN5 C41 (UniProt Q96P11), for which the “log2 mean competition ratio” value is 0.057.

On to NPC1 C1261 (UniProt O15118), for which the “log2 mean competition ratio” value was -0.139.

Consider NSMCE2 C140 (UniProt Q96MF7), for which the “log2 mean competition ratio” value came out at 0.169.

Consider NOVA2 C21, for which the “log2 mean competition ratio” value was -0.281.

For NR1D2 C374, the “log2 mean competition ratio” value was -0.204.

For NUP155 C1344 (UniProt O75694), the “log2 mean competition ratio” value was -0.0526.

As for OSBPL1A C520 (UniProt Q9BXW6), the “log2 mean competition ratio” value is -0.637.

Take NRBP1 C307 (UniProt Q9UHY1): the “log2 mean competition ratio” value is -0.243.

For OFD1 C766 (UniProt O75665), the “log2 mean competition ratio” value is 0.493.

Consider OSGEP C277 (UniProt Q9NPF4), for which the “log2 mean competition ratio” value is 0.148.

The experiment is the same for the next values; noted with them: 200 µM; treatment time: 4 h; cell line lysate: HEK293T.
Regarding NT5DC1 C119 (UniProt Q5TFE4), the “log2 mean competition ratio” value came out at 0.143.

Regarding NUP188 C1270 (UniProt Q5SRE5), the “log2 mean competition ratio” value was -0.113.

As to NSUN6 C415 (UniProt Q8TEA1), the “log2 mean competition ratio” value was 0.286.

Consider NSUN3 C214 (UniProt Q9H649), for which the “log2 mean competition ratio” value came out at 0.0701.

For the target NUDCD1 C111 (UniProt Q96RS6), the “log2 mean competition ratio” value was 0.179.

NUP160 C1166 (UniProt Q12769): the “log2 mean competition ratio” value was found to be 0.0664.

As for NR3C2 C308, the “log2 mean competition ratio” value is -0.028.

For the target NPEPPS C265 (UniProt P55786), the “log2 mean competition ratio” value is -0.282.

In the case of NTAN1 C118 (UniProt Q96AB6), the “log2 mean competition ratio” value is -0.215.

With NR3C2 C279, the “log2 mean competition ratio” value is -0.119.

NR3C1 C457 (UniProt P04150): the “log2 mean competition ratio” value worked out at 0.0735.

With NSDHL C86, the “log2 mean competition ratio” value turned out to be 0.0147.

With NUDT3 C68 (UniProt O95989), the “log2 mean competition ratio” value came out at 0.395.

On to NPTX1 C89 (UniProt Q15818), for which the “log2 mean competition ratio” value is -0.318.

As to OSBPL3 C337 (UniProt Q9H4L5), the “log2 mean competition ratio” value is -0.236.

Regarding NUDT9 C347 (UniProt Q9BW91), the “log2 mean competition ratio” value was determined as 0.142.

Consider NUP153 C593 (UniProt P49790), for which the “log2 mean competition ratio” value is 0.205.

For NRDE2 C1088 (UniProt Q9H7Z3), the “log2 mean competition ratio” value came to 0.0883.

Regarding NUMB C58 (UniProt P49757), the “log2 mean competition ratio” value turned out to be 0.218.

In the case of NUDT18 C24 (UniProt Q6ZVK8), the “log2 mean competition ratio” value is -0.443.

As to NPLOC4 C188, the “log2 mean competition ratio” value is 0.0224.

On to NT5DC1 C197 (UniProt Q5TFE4), for which the “log2 mean competition ratio” value was -0.963.

Turning to ORC1 C506 (UniProt Q13415), the “log2 mean competition ratio” value was -0.00199.

Take NUBP1 C307 (UniProt P53384): the “log2 mean competition ratio” value is 0.424.

Regarding NUP85 C603 (UniProt Q9BW27), the “log2 mean competition ratio” value amounted to 0.0468.

OTUB2 C13 (UniProt Q96DC9): the “log2 mean competition ratio” value was -0.0425.

As to NVL C309 (UniProt O15381), the “log2 mean competition ratio” value was found to be 0.124.

NSUN5 C41 (UniProt Q96P11): the “log2 mean competition ratio” value is -0.146.

Turning to NPC1 C1261 (UniProt O15118), the “log2 mean competition ratio” value came to 0.106.

For the target NSMCE2 C140 (UniProt Q96MF7), the “log2 mean competition ratio” value worked out at 0.172.

As to NOVA2 C21, the “log2 mean competition ratio” value is -0.00413.

As for NR1D2 C374, the “log2 mean competition ratio” value is -0.0833.

Regarding NUP155 C1344 (UniProt O75694), the “log2 mean competition ratio” value stood at 0.21.

For the target OSBPL1A C520 (UniProt Q9BXW6), the “log2 mean competition ratio” value is -0.422.

Consider NRBP1 C307 (UniProt Q9UHY1), for which the “log2 mean competition ratio” value is -0.336.

Regarding OFD1 C766 (UniProt O75665), the “log2 mean competition ratio” value was -0.118.

Consider OSGEP C277 (UniProt Q9NPF4), for which the “log2 mean competition ratio” value was -0.225.
